PubChem BioAssay AID1259254 – NCATS | 2017

Assay: 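Genome-wide screen for genes that prevent DNA re-replication in cancer cells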 (primary screen)
Cells: human HCT116 colorectal cancer cells
Knock-down reagent: single siRNA against human genes
Timing: 3 days
Measured: 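Imaged Hoechst DNA stain sorts each cell into a cycle phase by DNA amount; per plate, G2 fraction set to 0% for non-targeting and 100% for GMNN siRNA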
Scale: G2 robust z-score and G2 cells, % of GMNN control: higher = more G2 cells, more excess DNA replication; raw share of cells in G2: higher = larger share of cells with G2 DNA content
Call rule: 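An siRNA counts as active if its G2 robust z-score lies at least 5 MADs above the screen median; here such calls match roughly 38% of GMNN control or more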
This is a random part of about 59,000 reagents. Over the whole deposit, about 1,550 (2.6%) were called active. 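G2 share is only a proxy for re-replication; each gene was hit by three separate siRNAs, and active genes were retested.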 Raw values vary from plate to plate and are shown uncorrected. The numbers tell different reagents against one gene apart. Not given: the amount of reagent.

| Target gene | reagent | G2 robust z-score | G2 cells, % of GMNN control | raw share of cells in G2 (%) | call |
| --- | --- | --- | --- | --- | --- |
| PHOSPHO1 (phosphoethanolamine/phosphocholine phosphatase 1) | 1 | -0.722 | -2.11 | 3.81 | inactive |
| PHOSPHO1 (phosphoethanolamine/phosphocholine phosphatase 1) | 2 | 3.78 | 29.6 | 15.5 | inactive |
| PHOSPHO1 (phosphoethanolamine/phosphocholine phosphatase 1) | 3 | -1.23 | -5.68 | 3.25 | inactive |
| IFI27L2 (interferon alpha inducible protein 27 like 2) | 1 | 0.919 | 9.43 | 6.25 | inactive |
| IFI27L2 (interferon alpha inducible protein 27 like 2) | 2 | -0.263 | 1.11 | 2.74 | inactive |
| IFI27L2 (interferon alpha inducible protein 27 like 2) | 3 | 0.94 | 9.58 | 7.3 | inactive |
| ZNF577 (zinc finger protein 577) | 1 | 1.3 | 12.1 | 7.07 | inactive |
| ZNF577 (zinc finger protein 577) | 2 | -0.744 | -2.27 | 4.88 | inactive |
| ZNF577 (zinc finger protein 577) | 3 | -0.00775 | 2.91 | 4.55 | inactive |
| WDR5 (WD repeat domain 5) | 1 | 0.371 | 5.58 | 7.17 | inactive |
| WDR5 (WD repeat domain 5) | 2 | -0.904 | -3.39 | 2.73 | inactive |
| WDR5 (WD repeat domain 5) | 3 | -0.199 | 1.57 | 3.76 | inactive |
| KAT6B (lysine acetyltransferase 6B) | 1 | 0.94 | 9.58 | 10.2 | inactive |
| KAT6B (lysine acetyltransferase 6B) | 2 | 0.15 | 4.03 | 5.5 | inactive |
| KAT6B (lysine acetyltransferase 6B) | 3 | -0.161 | 1.83 | 4.49 | inactive |
| NTRK3 (neurotrophic receptor tyrosine kinase 3) | 1 | -0.237 | 1.3 | 6.04 | inactive |
| NTRK3 (neurotrophic receptor tyrosine kinase 3) | 2 | 0.968 | 9.78 | 8.7 | inactive |
| NTRK3 (neurotrophic receptor tyrosine kinase 3) | 3 | -1.11 | -4.84 | 2.32 | inactive |
| POGK (pogo transposable element derived with KRAB domain) | 1 | 0.323 | 5.24 | 6.13 | inactive |
| POGK (pogo transposable element derived with KRAB domain) | 2 | 2.33 | 19.4 | 13.7 | inactive |
| POGK (pogo transposable element derived with KRAB domain) | 3 | -0.413 | 0.0614 | 4.37 | inactive |
| NEIL2 (nei like DNA glycosylase 2) | 1 | -0.594 | -1.21 | 4.26 | inactive |
| NEIL2 (nei like DNA glycosylase 2) | 2 | 0.481 | 6.35 | 8.99 | inactive |
| NEIL2 (nei like DNA glycosylase 2) | 3 | -0.0445 | 2.65 | 5.82 | inactive |
| CD55 (CD55 molecule (Cromer blood group)) | 1 | -0.682 | -1.83 | 4.44 | inactive |
| CD55 (CD55 molecule (Cromer blood group)) | 2 | -0.707 | -2.01 | 3.35 | inactive |
| CD55 (CD55 molecule (Cromer blood group)) | 3 | -0.135 | 2.02 | 4.31 | inactive |
| CYYR1 (cysteine and tyrosine rich 1) | 1 | 0.798 | 8.58 | 7.53 | inactive |
| CYYR1 (cysteine and tyrosine rich 1) | 2 | -0.143 | 1.96 | 3.91 | inactive |
| CYYR1 (cysteine and tyrosine rich 1) | 3 | -0.0166 | 2.85 | 2.65 | inactive |

Laid out differently: results already given
Target gene	reagent	G2 robust z-score	G2 cells, % of GMNN control	raw share of cells in G2 (%)	call
KAT6B (lysine acetyltransferase 6B)	1	0.94	9.58	10.2	inactive
KAT6B (lysine acetyltransferase 6B)	2	0.15	4.03	5.5	inactive
